No constants are given. Whether binding was seen depends on the method and setting. In cells and extracts the contact can be indirect. Some binding calls cover weakened binding; strength is not graded here. Sequences can lack the tags named with a protein.

Sequences of proteins named here, by UniProt entry; tags and fusion partners are left off.
UniProt O15379: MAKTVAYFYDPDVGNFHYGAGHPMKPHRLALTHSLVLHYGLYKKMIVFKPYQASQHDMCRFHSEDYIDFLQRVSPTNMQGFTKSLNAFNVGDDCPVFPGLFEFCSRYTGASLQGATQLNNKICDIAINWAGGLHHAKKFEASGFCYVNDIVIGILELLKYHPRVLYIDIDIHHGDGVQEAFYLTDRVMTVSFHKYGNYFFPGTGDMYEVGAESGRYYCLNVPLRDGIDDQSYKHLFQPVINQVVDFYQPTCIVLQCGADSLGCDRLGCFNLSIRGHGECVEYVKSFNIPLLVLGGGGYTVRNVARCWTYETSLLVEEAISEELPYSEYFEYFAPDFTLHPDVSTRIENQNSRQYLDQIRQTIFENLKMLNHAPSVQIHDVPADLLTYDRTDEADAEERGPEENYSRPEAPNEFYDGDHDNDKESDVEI

The assay deals with HDAC3 (human (endogenous in HEK293)) (UniProt O15379). The experiment in a line: co-IP; HEK293 cells transfected with HA-REV-ERBα and/or SENP-1, treated with 10 μM GSK1362 and/or 5 ng/ml IL-1β for 4 hours; lysate in IP lysis buffer (150 mM NaCl, 20 mM Tris-HCl, 10% glycerol, 1% Triton X-100, NEM); anti-HDAC3 or rabbit IgG, protein A beads, 4°C; blot for REV-ERBα.

B1: HA-tagged REV-ERBα (protein, UniProt P20393 1-614)
chain: MTTLDSNNNTGGVITYIGSSGSSPSRTSPESLYSDNSNGSFQSLTQGCPTYFPPSPTGSLTQDPARSFGSIPPSLSDDGSPSSSSSSSSSSSSFYNGSPPGSLQVAMEDSSRVSPSKSTSNITKLNGMVLLCKVCGDVASGFHYGVHACEGCKGFFRRSIQQNIQYKRCLKNENCSIVRINRNRCQQCRFKKCLSVGMSRDAVRFGRIPKREKQRMLAEMQSAMNLANNQLSSQCPLETSPTQHPTPGPMGPSPPPAPVPSPLVGFSQFPQQLTPPRSPSPEPTVEDVISQVARAHREIFTYAHDKLGSSPGNFNANHASGSPPATTPHRWENQGCPPAPNDNNTLAAQRHNEALNGLRQAPSSYPPTWPPGPAHHSCHQSNSNGHRLCPTHVYAAPEGKAPANSPRQGNSKNVLLACPMNMYPHGRSGRTVQEIWEDFSMSFTPAVREVVEFAKHIPGFRDLSQHDQVTLLKAGTFEVLMVRFASLFNVKDQTVMFLSRTTYSLQELGAMGMGDLLSAMFDFSEKLNSLALTEEELGLFTAVVLVSADRSGMENSASVEQLQETLLRALRALVLKNRPLETSRFTKLLLKLPDLRTLNNMHSEKLLSFRVDAQ
Consider B1, for which the binding entry is recorded as “binds”.

For the origin of these results see PMC5983347.
